Data as given in PubChem BioAssay AID1259300 (Sanger Institute, 2017)
Here is an unselected part of 794 reagents. 18 of them (2.3%) were called active. 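Calls rest on knock-down alone, not drug synergy; depositor treated synergy scores above 0.15 as synergistic; drug doses alone had little viability effect.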 Entries without a mark were called inactive. Viability is capped at 1. Further read-outs or replicates are left out here. Not given: the amount of reagent, the time to read-out.

Screen: 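siRNA screen of kinases and common colorectal cancer mutant genes, alone or with drugs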 (primary screen)
Cells: HCT15 colorectal cancer cells
Reagent: siRNA pool against human genes
Treatment: anchor drug or DMSO vehicle added 24 h after seeding: BYL719 1 µM, cetuximab 5 µg/ml, trametinib 10 nM; drug doses chosen to barely affect viability alone
Measurement: 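Replicate-mean viability relative to non-targeting pool control with robust z-score for knock-down without drug; per-drug synergy scores for BYL719 (1 µM), cetuximab (5 µg/ml), trametinib (10 nM)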
Reading the numbers: viability z-score, siRNA alone: higher = more viable cells after knock-down; viability vs non-targeting, siRNA alone: higher = more viable cells; synergy score with BYL719: higher = stronger synergy of knock-down with drug
Rule for the call: 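Called active (essential) if viability z-score with knock-down alone falls below -3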
Meaning of the calls: active = essential: knock-down alone lowers viability (z below -3); inactive = no strong viability loss with knock-down alone

target gene,"viability z-score, siRNA alone","viability vs non-targeting, siRNA alone",synergy score with BYL719
RET,0.625,1,0.0969
NUCKS1,0.625,1,0.0246
CDK19,-0.758,0.899,0.0752
SRPK2,0.605,0.999,0.0931
PIK3R4,-0.539,0.915,0.162
AK5,0.625,1,0.0728
AKT3,0.625,1,0.173
TTBK1,-2.16,0.798,-0.0139
MGA,-1.61,0.838,0.0184
MYH10,0.625,1,0.154
TESK1,0.0536,0.958,0.218
PAK1,0.237,0.972,0.282
DYRK1A,0.422,0.985,0.119
PIP5K1B,0.625,1,0.133
CHEK2,0.0982,0.962,0.116
SLK,0.566,0.996,-0.0324
BCKDK,0.625,1,0.117
PINK1,0.625,1,0.27
CSNK2B,0.625,1,0.245
AURKC,0.625,1,0.133
ACVR2B,0.511,0.992,0.285
UCK1,0.625,1,0.0691
AAK1,-0.0121,0.954,0.24
MAPK12,0.625,1,0.133
CTCF,-1.56,0.841,0.0966
PRKD3,0.625,1,0.335
PIK3R3,0.625,1,-0.0492
RIPK2,0.625,1,0.267
NME3,-0.0156,0.953,0.0512
TSSK2,0.315,0.978,0.254
FGR,0.625,1,0.144
BRD3,0.625,1,0.266
IP6K3,0.625,1,0.223
RPS6KC1,0.625,1,0.152

An excerpt of the results above:
target gene,"viability z-score, siRNA alone","viability vs non-targeting, siRNA alone",synergy score with BYL719
TSSK2,0.315,0.978,0.254
FGR,0.625,1,0.144
